The AUC(0-inf) is the area under the concentration-time curve extrapolated to infinity. As usually defined, the AUC(0-t) is exposure summed from dosing to a finite time, without extrapolation to infinity. Read a high AUC(0-t) as more exposure. Broadly, the Tmax is the time at which the peak concentration occurs.

Consider one molecule from paper PMC5099554 (British Journal of Clinical Pharmacology, 2016).

The conditions of series [1]: male, human, in vivo, healthy male subjects, plasma; for AUC(0-inf): AUCinf; for AUC(0-inf) / AUC(0-t): geometric mean; for AUC(0-t): AUClast; for Tmax: t max (median).
The subject of another series is P-gp. As to conditions: male, human, in vivo, 30 mg, AUClast, geometric mean, healthy male subjects, plasma.
Where [2] appears, read: After FRG, after 2 weeks of fermented red ginseng.
Setting [3] is: Before FRG, before fermented red ginseng.

Read-outs that look alike come from different tables or passages of the source.

On to `CC(C)(C(=O)O)c1ccc(C(O)CCCN2CCC(C(O)(c3ccccc3)c3ccccc3)CC2)cc1` (centres unmarked) [Fexofenadine, fexofenadine], for which the total exposure AUC(0-inf) is 612 ng·h/mL in series [1] (setting [2]) and 468 ng·h/mL in series [1] (setting [3]). In addition, the area under the curve AUC(0-t) in series [1] (setting [2]) came to 595 ng·h/mL; in series [1] (setting [3]), 450 ng·h/mL; in the series with P-gp (setting [2]), 595 ng·h/mL; in the series with P-gp (setting [3]) it was 450 ng·h/mL. In addition, the time of peak concentration (Tmax) in series [1] (setting [2]) and in series [1] (setting [3]) was 2 h in each case.
